From PMC7708490
Read-outs that look alike come from different tables or passages of the source. Results are given in words; binding and its absence hold for the method and conditions named. In cells and extracts the contact can be indirect. Some binding calls cover weakened binding; strength is not graded here.

Protein sequences, listed by entry. Tags and fused reporters are not part of them.
UniProt Q14680: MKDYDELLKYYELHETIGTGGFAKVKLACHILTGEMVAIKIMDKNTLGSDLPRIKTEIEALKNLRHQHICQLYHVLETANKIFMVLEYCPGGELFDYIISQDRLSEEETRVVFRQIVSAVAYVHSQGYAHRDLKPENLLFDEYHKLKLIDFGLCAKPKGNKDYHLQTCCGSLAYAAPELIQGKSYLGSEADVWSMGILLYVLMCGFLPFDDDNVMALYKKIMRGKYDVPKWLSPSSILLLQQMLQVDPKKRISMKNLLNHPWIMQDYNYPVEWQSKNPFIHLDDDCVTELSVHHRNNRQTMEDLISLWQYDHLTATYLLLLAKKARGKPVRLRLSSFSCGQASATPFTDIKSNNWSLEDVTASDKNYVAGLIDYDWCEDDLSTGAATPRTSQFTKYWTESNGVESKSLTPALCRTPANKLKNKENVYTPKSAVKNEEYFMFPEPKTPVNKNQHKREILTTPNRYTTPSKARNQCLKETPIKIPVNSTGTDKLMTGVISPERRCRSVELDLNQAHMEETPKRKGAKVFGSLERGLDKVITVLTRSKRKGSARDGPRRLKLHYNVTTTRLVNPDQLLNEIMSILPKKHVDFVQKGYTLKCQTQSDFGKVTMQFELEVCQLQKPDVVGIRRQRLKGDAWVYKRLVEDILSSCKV
UniProt P12004: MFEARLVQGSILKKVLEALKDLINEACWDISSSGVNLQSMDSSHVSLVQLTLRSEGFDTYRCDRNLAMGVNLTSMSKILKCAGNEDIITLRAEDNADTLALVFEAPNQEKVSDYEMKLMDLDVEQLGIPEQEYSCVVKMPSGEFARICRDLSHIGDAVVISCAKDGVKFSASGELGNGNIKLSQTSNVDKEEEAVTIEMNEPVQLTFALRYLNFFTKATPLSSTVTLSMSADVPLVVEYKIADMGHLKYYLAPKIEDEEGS

B1: Slug (protein, UniProt O43623 1-268)
chain: MPRSFLVKKHFNASKKPNYSELDTHTVIISPYLYESYSMPVIPQPEILSSGAYSPITVWTTAAPFHAQLPNGLSPLSGYSSSLGRVSPPPPSDTSSKDHSGSESPISDEEERLQSKLSDPHAIEAEKFQCNLCNKTYSTFSGLAKHKQLHCDAQSRKSFSCKYCDKEYVSLGALKMHIRTHTLPCVCKICGKAFSRPWLLQGHIRTHTGEKPFSCPHCNRAFADRSNLRAHLQTHSDVKKYQCKNCSKTFSRMSLLHKHEESGCCVAH
B2: SPAG5 (protein, UniProt Q96R06 1-1193)
chain: MWRVKKLSLSLSPSPQTGKPSMRTPLRELTLQPGALTNSGKRSPACSSLTPSLCKLGLQEGSNNSSPVDFVNNKRTDLSSEHFSHSSKWLETCQHESDEQPLDPIPQISSTPKTSEEAVDPLGNYMVKTIVLVPSPLGQQQDMIFEARLDTMAETNSISLNGPLRTDDLVREEVAPCMGDRFSEVAAVSEKPIFQESPSHLLEESPPNPCSEQLHCSKESLSSRTEAVREDLVPSESNAFLPSSVLWLSPSTALAADFRVNHVDPEEEIVEHGAMEEREMRFPTHPKESETEDQALVSSVEDILSTCLTPNLVEMESQEAPGPAVEDVGRILGSDTESWMSPLAWLEKGVNTSVMLENLRQSLSLPSMLRDAAIGTTPFSTCSVGTWFTPSAPQEKSTNTSQTGLVGTKHSTSETEQLLCGRPPDLTALSRHDLEDNLLSSLVILEVLSRQLRDWKSQLAVPHPETQDSSTQTDTSHSGITNKLQHLKESHEMGQALQQARNVMQSWVLISKELISLLHLSLLHLEEDKTTVSQESRRAETLVCCCFDLLKKLRAKLQSLKAEREEARHREEMALRGKDAAEIVLEAFCAHASQRISQLEQDLASMREFRGLLKDAQTQLVGLHAKQEELVQQTVSLTSTLQQDWRSMQLDYTTWTALLSRSRQLTEKLTVKSQQALQERDVAIEEKQEVSRVLEQVSAQLEECKGQTEQLELENSRLATDLRAQLQILANMDSQLKELQSQHTHCAQDLAMKDELLCQLTQSNEEQAAQWQKEEMALKHMQAELQQQQAVLAKEVRDLKETLEFADQENQVAHLELGQVECQLKTTLEVLRERSLQCENLKDTVENLTAKLASTIADNQEQDLEKTRQYSQKLGLLTEQLQSLTLFLQTKLKEKTEQETLLLSTACPPTQEHPLPNDRTFLGSILTAVADEEPESTPVPLLGSDKSAFTRVASMVSLQPAETPGMEESLAEMSIMTTELQSLCSLLQESKEEAIRTLQRKICELQARLQAQEEQHQEVQKAKEADIEKLNQALCLRYKNEKELQEVIQQQNEKILEQIDKSGELISLREEVTHLTRSLRRAETETKVLQEALAGQLDSNCQPMATNWIQEKVWLSQEVDKLRVMFLEMKNEKEKLMIKFQSHRNILEENLRRSDKELEKLDDIVQHIYKTLLSIPEVVRGCKELQGLLEFLS

Experiments:
[1] = target: Maternal embryonic leucine zipper kinase (MELK), Myc-DDK tagged, from pCMV6-MELK-Myc-DDK (UniProt Q14680); experiment: co-IP; 293T cells transfected with pMELK (pCMV6-MELK-Myc-DDK) or pNC for 24 h; lysate mixed with DDK-conjugated agarose beads overnight at 4 °C; pellets washed with TBS five times; Western blot
[2] = target: Maternal embryonic leucine zipper kinase (MELK), Myc-DDK tagged, from pCMV6-MELK-Myc-DDK (UniProt Q14680); experiment: as above; remark: listed apart in the source

Molecule	binding [1]	binding [2]
PCNA (from UniProt P12004 1-261)	binds	–
B1	–	binds
B2	–	binds
